This is one part of the list.

By UniProt entry, the sequences of proteins in these tests, tags left out. Where a name states a change or a piece, a line headed by the entry shows the natural chain unless it says otherwise.
UniProt Q96LW7: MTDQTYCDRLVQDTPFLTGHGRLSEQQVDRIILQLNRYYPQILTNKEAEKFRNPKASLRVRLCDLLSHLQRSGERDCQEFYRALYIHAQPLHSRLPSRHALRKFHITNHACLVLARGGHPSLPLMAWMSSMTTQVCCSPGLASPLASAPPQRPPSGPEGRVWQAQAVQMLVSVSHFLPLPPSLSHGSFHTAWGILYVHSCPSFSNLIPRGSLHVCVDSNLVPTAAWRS
UniProt Q9BTV7: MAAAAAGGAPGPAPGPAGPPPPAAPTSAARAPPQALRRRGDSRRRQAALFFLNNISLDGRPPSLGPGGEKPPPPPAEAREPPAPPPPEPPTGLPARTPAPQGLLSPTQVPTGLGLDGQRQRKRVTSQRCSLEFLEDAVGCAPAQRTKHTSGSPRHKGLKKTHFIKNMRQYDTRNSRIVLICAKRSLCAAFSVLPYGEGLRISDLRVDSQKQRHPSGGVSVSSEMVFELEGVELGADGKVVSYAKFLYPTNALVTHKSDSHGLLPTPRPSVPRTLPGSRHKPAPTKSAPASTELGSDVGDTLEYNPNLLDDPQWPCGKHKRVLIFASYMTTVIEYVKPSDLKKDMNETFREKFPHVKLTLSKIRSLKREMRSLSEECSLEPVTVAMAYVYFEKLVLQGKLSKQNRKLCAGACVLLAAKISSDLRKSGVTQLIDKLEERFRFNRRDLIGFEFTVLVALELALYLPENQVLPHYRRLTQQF
UniProt Q3KRA6: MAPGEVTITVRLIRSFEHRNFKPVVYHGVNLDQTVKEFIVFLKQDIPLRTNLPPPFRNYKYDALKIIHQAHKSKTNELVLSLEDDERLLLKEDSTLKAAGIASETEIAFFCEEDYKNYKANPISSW
UniProt Q504U0: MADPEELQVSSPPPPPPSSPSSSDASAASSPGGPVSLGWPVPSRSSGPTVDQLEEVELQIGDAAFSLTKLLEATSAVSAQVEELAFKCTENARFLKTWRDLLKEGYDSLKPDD
UniProt P0DMB2: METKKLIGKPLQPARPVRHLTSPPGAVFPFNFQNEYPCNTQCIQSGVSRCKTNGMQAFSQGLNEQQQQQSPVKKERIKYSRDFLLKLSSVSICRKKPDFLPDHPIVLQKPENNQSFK
UniProt Q7Z6I8: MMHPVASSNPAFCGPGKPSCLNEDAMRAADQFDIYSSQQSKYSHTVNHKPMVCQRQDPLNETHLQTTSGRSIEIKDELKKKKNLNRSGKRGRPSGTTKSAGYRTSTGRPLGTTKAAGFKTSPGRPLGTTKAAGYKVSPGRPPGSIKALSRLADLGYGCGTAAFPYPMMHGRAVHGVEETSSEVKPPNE
UniProt Q9Y426: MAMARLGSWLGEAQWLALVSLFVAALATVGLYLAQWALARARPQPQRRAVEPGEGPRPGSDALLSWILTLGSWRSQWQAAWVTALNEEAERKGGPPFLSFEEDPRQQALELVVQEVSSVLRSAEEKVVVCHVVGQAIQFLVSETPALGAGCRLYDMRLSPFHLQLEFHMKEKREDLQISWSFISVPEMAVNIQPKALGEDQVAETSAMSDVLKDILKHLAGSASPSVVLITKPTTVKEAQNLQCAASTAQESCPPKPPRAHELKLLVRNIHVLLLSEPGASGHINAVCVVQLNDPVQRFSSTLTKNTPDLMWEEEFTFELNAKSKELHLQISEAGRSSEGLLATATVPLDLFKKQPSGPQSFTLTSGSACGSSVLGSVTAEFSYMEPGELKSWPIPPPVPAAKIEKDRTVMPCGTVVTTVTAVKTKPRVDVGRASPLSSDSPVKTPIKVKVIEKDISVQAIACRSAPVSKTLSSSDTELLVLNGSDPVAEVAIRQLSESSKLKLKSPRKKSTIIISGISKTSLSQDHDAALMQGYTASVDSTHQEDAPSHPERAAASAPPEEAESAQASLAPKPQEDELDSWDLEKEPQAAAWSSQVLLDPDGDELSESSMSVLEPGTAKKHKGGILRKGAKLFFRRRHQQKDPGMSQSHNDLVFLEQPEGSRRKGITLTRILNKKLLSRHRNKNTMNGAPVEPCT
UniProt P23280: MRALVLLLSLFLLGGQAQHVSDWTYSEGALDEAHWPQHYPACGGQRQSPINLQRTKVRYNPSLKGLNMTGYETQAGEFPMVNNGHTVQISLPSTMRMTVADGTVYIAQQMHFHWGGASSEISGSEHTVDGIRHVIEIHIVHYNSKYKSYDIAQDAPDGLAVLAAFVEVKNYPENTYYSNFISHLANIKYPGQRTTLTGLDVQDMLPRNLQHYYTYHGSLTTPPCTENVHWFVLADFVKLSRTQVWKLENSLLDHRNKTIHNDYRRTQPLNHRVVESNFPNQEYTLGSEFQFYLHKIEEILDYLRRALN

Holding throughout (experiment): log2 fold change, soluble protein after heating vs DMSO (PISA); higher = thermal stabilisation; K562 lysate, 10 uM; active = over 0.2 and 3.5 SD of the protein, either way, in both replicates (recomputed)
Compound in assay [1]: O=C1NC(=O)C(c2cnc3ccccn23)=C1c1cn2c3c(cc(F)cc13)CN(C(=O)N1CCCCC1)CC2
An outline of the steps:
(§1)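 Pellets of K562 cells were dounce-homogenised in PBS pH 7.4 with 1 mM MgCl2, and the crude extract was held at 1 mg/mL protein for a 30 min treatment with 10 μM compound. Aliquots were heated for 3 min over 48°C-58°C and pooled before NP-40 was added to 0.5% at 4°C. The supernatant from 21,000xg for 90 min was quantified by TMTpro 16plex LC-MS/MS with channel sums equalised. Values are reported from duplicates as log-two fold change in thermal stability relative to solvent controls.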

Compound in assay [2]: NCC(=O)Nc1ccc(-n2nc(C(F)(F)F)cc2-c2ccc3c(ccc4ccccc43)c2)cc1
An outline of the steps: as §1

Compound in the next assay: c1cn2cc(-c3ccc4cn[nH]c4c3)nc(Nc3ccc(N4CCOCC4)cc3)c2n1 [entospletinib]
The gist of the method: as §1

Compound in the next assay: O=C(CCCCCCC(=O)Nc1ccccc1)NO [vorinostat]
The gist of the method:
as §1

Compound in another assay: O=C(O)c1ccc2c(c1)nc(Nc1cccc(Cl)c1)c1ccncc12 [silmitasertib]
The gist of the method:
as §1

Turning to CARD19 (UniProt Q96LW7), the log2 fold change in assay [1] was inactive: -0.021.
Consider CABLES2 (UniProt Q9BTV7), for which the values for the log2 fold change (in assay [2]; in assay [1]; in the assay with entospletinib) were inactive: 0.059, inactive: 0.182 and inactive: -0.01, respectively.
With C2orf76 (UniProt Q3KRA6), the log2 fold change in the assay with vorinostat was inactive: 0.146; with silmitasertib, inactive: -0.012; in assay [1], inactive: 0; with entospletinib it was inactive: 0.029.
With C12orf73 (UniProt Q69YU5), the log2 fold change in the assay with vorinostat is inactive: 0.044; with silmitasertib it was inactive: -0.004; in assay [1] it was inactive: 0.019.
On to C4orf46 (UniProt Q504U0), for which the log2 fold change with vorinostat was inactive: 0.016; with silmitasertib, inactive: -0.03.
Regarding C8orf88 (UniProt P0DMB2), the log2 fold change with vorinostat was active: -0.455; with silmitasertib, inactive: 0.056; in assay [1], inactive: 0.024.
As for C5orf24 (UniProt Q7Z6I8), the log2 fold change in assay [1] was inactive: -0.11.
C2CD2 (UniProt Q9Y426): the log2 fold change in the assay with vorinostat is inactive: -0.162; in the assay with silmitasertib, inactive: 0.063; in assay [1], inactive: 0.044; with entospletinib, inactive: -0.079.
For CA6 (UniProt P23280), the log2 fold change with vorinostat was inactive: 0.089; with silmitasertib, inactive: -0.013.

(Values after the supplement of paper PMC10849652.)
